These are yes or no findings as the source states them, for the method shown. Binding seen in cells or lysates may run through a third protein. Some results given as binding are weak or reduced against the parent protein; the word gives no strength.
Assays:
[1] = target: GST-5ABC (recombinant human Band 3 amino acid 720-761 as GST fusion protein) (human) (UniProt P02730); experiment: pull-down of radiolabeled parasite extract on GST-5ABC beads, autoradiography
[2] = target: GST-5ABC (recombinant human Band 3 amino acid 720-761 as GST fusion protein) (human) (UniProt P02730); experiment: pull-down of radiolabeled parasite extract on GST-5ABC beads against GST beads
[3] = target: GST-5ABC (recombinant human Band 3 amino acid 720-761 as GST fusion protein) (human) (UniProt P02730); experiment: pull-down of radiolabeled parasite extract on GST-5ABC beads

Protein sequences, listed by entry. Tags and fused reporters are not part of them. Lines headed by an entry give the natural chain unless they say otherwise; changes in a name come on top.
UniProt P02730: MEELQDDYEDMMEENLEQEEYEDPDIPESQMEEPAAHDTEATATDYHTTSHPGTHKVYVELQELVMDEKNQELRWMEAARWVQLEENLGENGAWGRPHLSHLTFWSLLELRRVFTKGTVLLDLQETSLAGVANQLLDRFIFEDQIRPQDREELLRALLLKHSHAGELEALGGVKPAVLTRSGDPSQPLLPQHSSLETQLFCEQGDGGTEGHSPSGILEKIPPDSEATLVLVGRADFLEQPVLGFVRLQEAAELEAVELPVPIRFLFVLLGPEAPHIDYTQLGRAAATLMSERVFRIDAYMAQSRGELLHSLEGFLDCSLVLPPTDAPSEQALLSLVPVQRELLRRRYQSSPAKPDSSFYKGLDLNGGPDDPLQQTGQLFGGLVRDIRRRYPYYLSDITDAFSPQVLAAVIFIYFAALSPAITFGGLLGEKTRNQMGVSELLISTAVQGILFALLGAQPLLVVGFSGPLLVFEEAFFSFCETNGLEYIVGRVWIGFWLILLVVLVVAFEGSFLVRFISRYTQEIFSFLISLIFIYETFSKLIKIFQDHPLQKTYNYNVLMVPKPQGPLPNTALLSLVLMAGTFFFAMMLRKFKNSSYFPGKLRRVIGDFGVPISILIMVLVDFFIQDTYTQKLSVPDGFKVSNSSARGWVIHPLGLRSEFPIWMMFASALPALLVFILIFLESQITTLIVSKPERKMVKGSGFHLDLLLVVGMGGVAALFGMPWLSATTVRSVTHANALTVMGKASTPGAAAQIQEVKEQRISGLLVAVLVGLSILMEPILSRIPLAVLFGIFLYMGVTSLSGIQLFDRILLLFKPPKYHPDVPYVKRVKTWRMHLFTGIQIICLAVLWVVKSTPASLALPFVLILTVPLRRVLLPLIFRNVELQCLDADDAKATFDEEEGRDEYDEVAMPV
UniProt Q8I0U8: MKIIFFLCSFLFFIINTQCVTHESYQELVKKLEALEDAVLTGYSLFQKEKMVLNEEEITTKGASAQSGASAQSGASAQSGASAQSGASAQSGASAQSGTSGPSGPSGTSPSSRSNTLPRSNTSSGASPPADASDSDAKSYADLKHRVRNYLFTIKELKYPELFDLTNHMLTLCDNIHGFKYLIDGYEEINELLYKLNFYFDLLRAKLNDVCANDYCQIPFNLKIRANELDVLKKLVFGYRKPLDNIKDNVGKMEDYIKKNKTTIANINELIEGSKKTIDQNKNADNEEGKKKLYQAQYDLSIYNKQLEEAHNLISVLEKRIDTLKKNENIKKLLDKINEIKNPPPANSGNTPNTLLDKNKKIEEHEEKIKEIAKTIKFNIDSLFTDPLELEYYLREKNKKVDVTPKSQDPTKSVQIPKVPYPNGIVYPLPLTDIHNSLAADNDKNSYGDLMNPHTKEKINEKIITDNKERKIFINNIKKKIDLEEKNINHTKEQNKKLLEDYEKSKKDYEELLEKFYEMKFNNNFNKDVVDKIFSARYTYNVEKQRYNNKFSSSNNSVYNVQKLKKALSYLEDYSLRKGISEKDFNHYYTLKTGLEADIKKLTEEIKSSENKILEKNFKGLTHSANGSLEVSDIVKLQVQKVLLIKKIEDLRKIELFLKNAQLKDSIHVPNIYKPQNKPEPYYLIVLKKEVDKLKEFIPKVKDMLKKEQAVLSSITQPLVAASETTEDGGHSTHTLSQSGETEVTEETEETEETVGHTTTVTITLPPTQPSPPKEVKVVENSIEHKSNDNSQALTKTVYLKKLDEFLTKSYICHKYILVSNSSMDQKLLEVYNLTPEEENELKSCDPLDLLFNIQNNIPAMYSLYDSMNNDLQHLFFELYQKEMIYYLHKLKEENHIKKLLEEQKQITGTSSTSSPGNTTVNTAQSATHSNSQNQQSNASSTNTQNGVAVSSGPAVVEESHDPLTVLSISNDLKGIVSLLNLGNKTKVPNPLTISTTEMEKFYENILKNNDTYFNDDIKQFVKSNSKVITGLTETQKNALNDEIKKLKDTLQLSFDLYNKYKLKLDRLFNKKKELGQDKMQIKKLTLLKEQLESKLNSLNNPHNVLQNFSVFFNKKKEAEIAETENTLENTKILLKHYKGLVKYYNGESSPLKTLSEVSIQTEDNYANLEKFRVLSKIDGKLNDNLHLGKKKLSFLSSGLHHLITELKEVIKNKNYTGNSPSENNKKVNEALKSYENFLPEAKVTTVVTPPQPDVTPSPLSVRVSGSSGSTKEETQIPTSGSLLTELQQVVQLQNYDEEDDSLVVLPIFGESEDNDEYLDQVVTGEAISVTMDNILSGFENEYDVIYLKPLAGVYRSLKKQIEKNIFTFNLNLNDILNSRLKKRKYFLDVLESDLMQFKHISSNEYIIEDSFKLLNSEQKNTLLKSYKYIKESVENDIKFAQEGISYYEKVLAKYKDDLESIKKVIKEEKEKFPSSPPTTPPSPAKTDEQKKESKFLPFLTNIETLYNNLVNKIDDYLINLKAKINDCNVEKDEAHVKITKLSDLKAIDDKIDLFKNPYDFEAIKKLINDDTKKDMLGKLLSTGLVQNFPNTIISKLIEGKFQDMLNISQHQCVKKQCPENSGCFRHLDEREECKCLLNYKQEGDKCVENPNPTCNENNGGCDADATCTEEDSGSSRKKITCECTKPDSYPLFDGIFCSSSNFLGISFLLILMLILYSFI

Row | Substance | binding [1] | binding [2] | binding [3]
1 | native P. falciparum (3D7) MSP1, full length, metabolically radiolabeled (from UniProt Q8I0U8 20-1699) (ligand) | binds | binds | –
2 | native P. falciparum (3D7) MSP142, metabolically radiolabeled (from UniProt Q8I0U8 1327-1699) (ligand) | binds | binds | binds

From patent US20030059436A1, “Band 3 antigenic peptides, malaria polypeptides and uses thereof” (priority 2001, published 2003)
